Measured values from PubChem BioAssay AID2685 (National Center for Advancing Translational Sciences (NCATS), 2010).
This is one part of the list. These are further read-outs of the screen, such as a control signal, another cell line or another target. No call is given for them. Compounds called inactive in the main read-out are mostly missing here. Potencies come from curve fits of mixed quality, noted in brackets.

Assay: qHTS Assay for Lipid Storage Modulators in Drosophila S3 Cells;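 as to cell number change: cells counted by Cell Tracker Red CMTPX staining in the red channel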
Details: BODIPY lipid droplet fluorescence, 18-24 h; for cell number change: measured here: cell count max response, cells fed with added oleic acid
Summary of the method: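 Laser-scanning cytometry quantifies lipid droplet accumulation (500–530 nm total intensity; droplet/cell object ratio) in oleic acid-fed (400 uM added) Drosophila S3 cells treated with a concentration series. 20 uM Triacsin C defined 100% inhibition.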

[1] = measured here: cell number channel AC50, cells fed with added oleic acid
[2] = measured here: lipid fluorescence (Fed channel) AC50, cells fed with added oleic acid

Compound | cell number change | AC50 [1] | AC50 [2]
Cc1noc(C)c1C(=O)OCC(=O)Nc1cc(S(=O)(=O)N2CCOCC2)ccc1Cl | -24.3% | 0.00517 µM [falling, full curve, poor fit] | 
Fc1ccccc1Oc1nc(-c2ccncc2)nc2ccccc12 | 1.72% |  | 2.06 µM [rising, single point]
CNC(=O)c1cc2c(s1)-c1ccccc1CC2 | -9.56% |  | 0.82 µM [falling, single point]
CCC(=O)Nc1nc(-c2ccccc2)ns1 | -13% |  | 0.103 µM [falling, full curve, poor fit]
CCOC(=O)c1cccc(NC(=O)CSc2nnc(-c3ccoc3C)n2CC)c1 | -18.2% |  | 4.11 µM [falling, full curve, poor fit]
CCc1ccc(NC(=O)C(NS(=O)(=O)c2cccc3nsnc23)c2ccccc2)cc1 (stereo unspecified) | -9.35% |  | 9.2 µM [rising, partial curve]
OCC[C@H]1C[C@H](O)[C@@H](O)[C@@]2(Cc3ccccc3CO2)O1 | 3.72% |  | 16.4 µM [falling, single point]
O=C(c1ccc(-n2cnnn2)cc1)N1CCN(C(c2ccccc2)c2ccccc2)CC1 | -12.2% |  | 3.26 µM [rising, single point]
COc1ccc(NC(=O)OCC(C)C)cc1OC | 25.7% |  | 
O=C(COC(=O)Cc1ccc(F)cc1)NC1CCCCCC1 | -10% |  | 
CCOC(=O)N1CCC(NC(=O)CSCc2cnn(-c3ccccc3)c2-n2cccc2)CC1 | -29.7% |  | 6.51 µM [rising, single point]
Cn1ncc([N+](=O)[O-])c1C(=O)N1CCCCCC1 | -10.8% |  | 
C#CCOc1ccc(/C=C2/C(=O)ON=C2C)cc1OCC | -28.4% |  | 25.9 µM [falling, single point]
Cc1ccc(S(=O)(=O)CC(CN2CCCCC2)N2CCCCC2)cc1 (stereo unspecified) | -0.712% |  | 25.9 µM [falling, single point]
O=C(/C=C/c1cn(-c2ccccc2)nc1-c1cccnc1)c1ccco1 | -55.2% | 32.6 µM [falling, single point] | 32.6 µM [falling, single point]
CCc1nc(N2CCN(C(C)=O)CC2)c2c3c(sc2n1)CC(C(C)(C)C)CC3 (stereo unspecified) | -3.11% |  | 29.1 µM [rising, single point]
CC(C)[C@@H](CSc1ccccc1)N1CCN(Cc2ccccc2)CCC1=O | 17.1% |  | 29.1 µM [falling, single point]
Cc1onc(-c2ccccc2)c1C(=O)NNC(=O)c1ccccc1O | 25% | 1.3 µM [rising, full curve, poor fit] | 
COC(=O)c1ccccc1NC(=O)c1ccc2c(c1)OCCO2 | -1.25% |  | 4.11 µM [rising, single point]
CCSc1nc2ccccc2c(=O)n1OCC(=O)OC | -54.8% | 3.66 µM [falling, full curve] | 29.1 µM [falling, single point]

Ten entries from above, tab-delimited:
Compound	cell number change	AC50 [1]	AC50 [2]
Fc1ccccc1Oc1nc(-c2ccncc2)nc2ccccc12	1.72%		2.06 µM [rising, single point]
CNC(=O)c1cc2c(s1)-c1ccccc1CC2	-9.56%		0.82 µM [falling, single point]
CCOC(=O)c1cccc(NC(=O)CSc2nnc(-c3ccoc3C)n2CC)c1	-18.2%		4.11 µM [falling, full curve, poor fit]
CCc1ccc(NC(=O)C(NS(=O)(=O)c2cccc3nsnc23)c2ccccc2)cc1 (stereo unspecified)	-9.35%		9.2 µM [rising, partial curve]
COc1ccc(NC(=O)OCC(C)C)cc1OC	25.7%		
O=C(COC(=O)Cc1ccc(F)cc1)NC1CCCCCC1	-10%		
C#CCOc1ccc(/C=C2/C(=O)ON=C2C)cc1OCC	-28.4%		25.9 µM [falling, single point]
Cc1ccc(S(=O)(=O)CC(CN2CCCCC2)N2CCCCC2)cc1 (stereo unspecified)	-0.712%		25.9 µM [falling, single point]
CC(C)[C@@H](CSc1ccccc1)N1CCN(Cc2ccccc2)CCC1=O	17.1%		29.1 µM [falling, single point]
COC(=O)c1ccccc1NC(=O)c1ccc2c(c1)OCCO2	-1.25%		4.11 µM [rising, single point]

The list continues.

Compound | cell number change | AC50 [1] | AC50 [2]
CCOC(=O)[C@H]1[C@H]2COc3ccc(C)cc3[C@@H]2N2C(=O)c3ccccc3NC(=O)[C@@]12C | -11.3% |  | 0.92 µM [falling, full curve, poor fit]
Cc1cc2c(Nc3cccc(O)c3)ncnc2s1 | -58.8% | 1.64 µM [falling, partial curve] | 0.58 µM [falling, single point]
COc1ccc(NC(=O)CSc2nc3[nH]ncc3c(=O)[nH]2)cc1OC | -2.36% |  | 
CCOCc1c(C(=O)N2CCN(CC(=O)Nc3ccc(F)cc3)CC2)oc2ccccc12 |  | 0.82 µM [falling, single point] | 
COCc1cc(=O)n2[nH]c(-c3cccc(Br)c3)cc2n1 | 15.3% |  | 0.411 µM [rising, full curve, poor fit]
COC(=O)c1c(NC(=O)c2ccccc2)sc2c1CC(C)(C)OC2 | 23.2% | 2.59 µM [rising, partial curve] | 29.1 µM [rising, partial curve, poor fit]
Cc1ccc(C)c(NC(=O)CSc2sc3c(O)cc(=O)[nH]c3c2C#N)c1 | 21.3% |  | 2.91 µM [rising, single point]
CCC(C)(C)NC(=O)CN(C(=O)CCC(=O)Nc1nccs1)c1cccc(C)c1 | -3.15% |  | 3.26 µM [falling, full curve, poor fit]
Nc1nc(SCc2nc3scc(-c4ccccc4)c3c(=O)[nH]2)n[nH]1 | 39.4% | 5.8 µM [rising, partial curve, poor fit] | 
CC(C)C(=O)Nc1ccc2oc(-c3cc(F)c(F)cc3Cl)nc2c1 | -38.3% | 9.2 µM [falling, partial curve] | 10.3 µM [falling, partial curve]
Cc1ccc(C(=O)N/C(=C\c2ccc(-c3ccccc3[N+](=O)[O-])o2)C(=O)NCCN(C)C)cc1 | -29.4% |  | 4.61 µM [falling, single point]
O=C(CCc1nc(-c2ccccc2Cl)no1)NC1CCCCC1 | 50% | 14.6 µM [rising, partial curve, poor fit] | 
CC(=O)Nc1ccc(NC(=O)C(C)Sc2nc3ccccc3c(=O)n2CC2CCCO2)cc1 (stereo unspecified) | 28.7% |  | 16.4 µM [rising, single point]
Cc1ccc(NS(=O)(=O)c2ccc(-c3ccc(=O)[nH]n3)o2)cc1N(C)C | 24.8% |  | 
Cc1ccccc1CC1(CO)CCCN(C(=O)CCCN2CCCCC2=O)C1 (stereo unspecified) | 1.98% |  | 0.146 µM [rising, full curve, poor fit]
O=C(NC(=S)Nc1ccc2c(c1)OCCO2)c1cccc2ccccc12 | 21.2% |  | 5.8 µM [rising, single point]
CC(C)CNC(=O)CSc1nnc(CN2CCCCCC2=O)n1-c1ccccn1 | 2.22% |  | 1.3 µM [falling, full curve]
Cc1ccnc(NC(=O)c2ccc(Cl)c(S(=O)(=O)N3CCCC3)c2)c1 |  |  | 6.51 µM [rising, single point]
Cn1c(=O)c2[nH]cnc2n(C)c1=O | 31% |  | 0.092 µM [rising, full curve, poor fit]
